Record: PubChem BioAssay AID1159578 (Peter MacCallum Cancer Centre, 2015)

Assay: 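Knock-downs that alter how fast lymphatic endothelial cells migrate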 (primary screen)
Cell system: human lymphatic endothelial cells
Reagent: siRNA pool against human genes, 40 nM
Duration: 48 h after transfection
Measured: 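High-content imaging of dye-stained cells in a scratch assay measures filled wound area and nuclei per well; duplicate means given as ratio to mock and robust z-score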
Reading the numbers: migration robust z-score: higher = faster migration into the scratch; nuclei per well: higher = more cells in the well
Active means: 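Pools averaging fewer than 3300 nuclei are never called; remaining pools count as changed when migration robust z lies outside -2 to 2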
Meaning of the calls: active = migration changed; inactive = no migration change, or too few cells
In all, the deposit lists about 18,000 reagents; this is an unselected part. In the full data, about 1,030 (5.7%) were called active. 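Inactive calls also include pools with fewer than 3300 nuclei, whose migration was not assessed.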 Raw values vary from plate to plate and are shown uncorrected. A number with no mark means an inactive call. Further read-outs or replicates are left out here.

With knock-down of SIGLEC9 (sialic acid binding Ig like lectin 9), the record shows migration robust z-score 0.38; migration class with cell-count check migration z between -2 and 2; enough cells; nuclei per well, duplicate mean 6266.
Silencing of TNS2 (tensin 2) gave: migration robust z-score 1.54; migration class with cell-count check migration z between -2 and 2; enough cells; nuclei per well, duplicate mean 4926.
After knock-down of GPR142 (G protein-coupled receptor 142), the record shows migration robust z-score -1.04; migration class with cell-count check migration z between -2 and 2; enough cells; nuclei per well, duplicate mean 4883.
Against HEXB (hexosaminidase subunit beta), the values are migration robust z-score -0.1; migration class with cell-count check migration z between -2 and 2; enough cells; nuclei per well, duplicate mean 4457.
Against LRRFIP1 (LRR binding FLII interacting protein 1), the entry reads migration robust z-score 0.04; migration class with cell-count check migration z between -2 and 2; enough cells; nuclei per well, duplicate mean 6110.
With knock-down of KIAA2013, the record shows migration robust z-score 0.99; migration class with cell-count check migration z between -2 and 2; enough cells; nuclei per well, duplicate mean 5804.
After knock-down of KRTAP21-2 (keratin associated protein 21-2), the record shows migration robust z-score 0.94; migration class with cell-count check migration z between -2 and 2; enough cells; nuclei per well, duplicate mean 5668.
For HDGFL2 (HDGF like 2) the deposit lists migration robust z-score -0.96; migration class with cell-count check migration z between -2 and 2; enough cells; nuclei per well, duplicate mean 5466.
Against PGCKA1 (PDCD10 and GCKIII kinases associated 1), the entry reads migration robust z-score 1.21; migration class with cell-count check migration z between -2 and 2; enough cells; nuclei per well, duplicate mean 5548.

2 entries from above, sorted by “nuclei per well, duplicate mean”, high to low:
PGCKA1 (PDCD10 and GCKIII kinases associated 1) — migration robust z-score: 1.21; migration class with cell-count check: migration z between -2 and 2; enough cells; nuclei per well, duplicate mean: 5548
HDGFL2 (HDGF like 2) — migration robust z-score: -0.96; migration class with cell-count check: migration z between -2 and 2; enough cells; nuclei per well, duplicate mean: 5466

Further results:
POLE2 (DNA polymerase epsilon 2, accessory subunit) showed migration robust z-score 0.47; migration class with cell-count check migration z between -2 and 2; enough cells; nuclei per well, duplicate mean 5268.
ISYNA1 (inositol-3-phosphate synthase 1) scored migration robust z-score -0.26; migration class with cell-count check migration z between -2 and 2; enough cells; nuclei per well, duplicate mean 3735.
With knock-down of SGK2 (serum/glucocorticoid regulated kinase 2) the results were migration robust z-score -0.42; migration class with cell-count check migration z between -2 and 2; enough cells; nuclei per well, duplicate mean 5400.
TTC7B (tetratricopeptide repeat domain 7B) gave migration robust z-score 1.31; migration class with cell-count check migration z between -2 and 2; enough cells; nuclei per well, duplicate mean 5188.
EEF1B2 (eukaryotic translation elongation factor 1 beta 2) gave migration robust z-score -0.64; migration class with cell-count check migration z between -2 and 2; enough cells; nuclei per well, duplicate mean 5556.
Silencing of ROMO1 (reactive oxygen species modulator 1) resulted in: migration robust z-score 1.21; migration class with cell-count check migration z between -2 and 2; enough cells; nuclei per well, duplicate mean 6344.
IFT172 (intraflagellar transport 172) showed migration robust z-score -1.38; migration class with cell-count check migration z between -2 and 2; enough cells; nuclei per well, duplicate mean 5766.
UBE2I (ubiquitin conjugating enzyme E2 I) showed migration robust z-score 0.31; migration class with cell-count check migration z between -2 and 2; enough cells; nuclei per well, duplicate mean 5448.
Depletion of HSF2BP (heat shock transcription factor 2 binding protein) resulted in: migration robust z-score -0.56; migration class with cell-count check migration z between -2 and 2; enough cells; nuclei per well, duplicate mean 5976.
Knock-down of LRIT1 (leucine rich repeat, Ig-like and transmembrane domains 1) gave: migration robust z-score -0.35; migration class with cell-count check migration z between -2 and 2; enough cells; nuclei per well, duplicate mean 5104.
BYSL (bystin like) gave migration robust z-score -0.9; migration class with cell-count check migration z between -2 and 2; enough cells; nuclei per well, duplicate mean 5062.
SPATA7 (spermatogenesis associated 7) scored migration robust z-score 0.99; migration class with cell-count check migration z between -2 and 2; enough cells; nuclei per well, duplicate mean 6978.
Knock-down of TAMALIN (trafficking regulator and scaffold protein tamalin) came out at: migration robust z-score 0.77; migration class with cell-count check migration z between -2 and 2; enough cells; nuclei per well, duplicate mean 6022.
TSHR (thyroid stimulating hormone receptor) gave migration robust z-score 0.44; migration class with cell-count check migration z between -2 and 2; enough cells; nuclei per well, duplicate mean 6239.
For CYB561 (cytochrome b561), the entry reads migration robust z-score -1.01; migration class with cell-count check migration z between -2 and 2; enough cells; nuclei per well, duplicate mean 6172.
SPMIP2 (sperm microtubule inner protein 2) scored migration robust z-score -0.14; migration class with cell-count check migration z between -2 and 2; enough cells; nuclei per well, duplicate mean 5366.
For KATNIP (katanin interacting protein), the values are migration robust z-score -2.82 (active); migration class with cell-count check migration z below -2; enough cells; nuclei per well, duplicate mean 4766.
Knock-down of PPP1R10 (protein phosphatase 1 regulatory subunit 10) gave: migration robust z-score -0.99; migration class with cell-count check migration z between -2 and 2; enough cells; nuclei per well, duplicate mean 5198.
